No constants are given. Whether binding was seen depends on the method and setting. Binding seen in cells or lysates may run through a third protein. Some entries that bind do so weakly or less than the wild type.
Target: focal adhesion kinase (FAK) (human (endogenous in MCF-7)) (UniProt Q05397)
Test: co-IP; MCF-7-EV and MCF-7-BAALC cell lysates (500 µg) incubated with BAALC antibody, FAK antibody or IgG control and Protein A/G agarose overnight at 4°C; beads washed 3 times in TBST; BAALC and FAK detected by western blotting

By UniProt entry, the sequences of proteins in these tests, tags left out.
UniProt Q05397: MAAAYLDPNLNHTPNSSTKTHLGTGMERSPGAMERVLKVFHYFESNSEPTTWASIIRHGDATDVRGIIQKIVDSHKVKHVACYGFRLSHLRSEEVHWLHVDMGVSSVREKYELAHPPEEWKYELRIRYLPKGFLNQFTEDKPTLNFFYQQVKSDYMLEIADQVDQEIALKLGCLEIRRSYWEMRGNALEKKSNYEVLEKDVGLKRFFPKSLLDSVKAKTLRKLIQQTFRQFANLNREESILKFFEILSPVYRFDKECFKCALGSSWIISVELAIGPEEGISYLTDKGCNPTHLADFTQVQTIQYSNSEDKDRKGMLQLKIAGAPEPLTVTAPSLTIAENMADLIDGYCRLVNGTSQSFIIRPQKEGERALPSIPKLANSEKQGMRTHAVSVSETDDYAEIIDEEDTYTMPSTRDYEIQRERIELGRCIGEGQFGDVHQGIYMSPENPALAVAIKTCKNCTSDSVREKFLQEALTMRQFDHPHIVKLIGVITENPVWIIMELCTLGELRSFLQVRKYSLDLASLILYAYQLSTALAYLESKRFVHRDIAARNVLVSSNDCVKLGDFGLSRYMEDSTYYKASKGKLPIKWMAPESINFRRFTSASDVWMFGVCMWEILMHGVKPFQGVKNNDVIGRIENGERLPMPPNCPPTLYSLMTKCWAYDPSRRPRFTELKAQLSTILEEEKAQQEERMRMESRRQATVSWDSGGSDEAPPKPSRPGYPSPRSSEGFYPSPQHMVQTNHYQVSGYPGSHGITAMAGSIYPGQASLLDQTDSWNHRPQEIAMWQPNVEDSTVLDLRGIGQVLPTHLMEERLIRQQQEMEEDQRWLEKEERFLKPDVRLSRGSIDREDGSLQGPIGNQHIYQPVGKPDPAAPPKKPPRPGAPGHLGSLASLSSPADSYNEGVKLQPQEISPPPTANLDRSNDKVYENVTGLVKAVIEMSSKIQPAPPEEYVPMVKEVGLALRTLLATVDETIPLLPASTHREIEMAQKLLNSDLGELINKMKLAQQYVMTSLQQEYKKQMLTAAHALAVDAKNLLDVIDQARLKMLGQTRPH

- binding: binds
B1: Brain and Acute Leukemia, Cytoplasmic (BAALC) (protein, UniProt Q8WXS3 1-145)
chain: MGCGGSRADAIEPRYYESWTRETESTWLTYTDSDAPPSAAAPDSGPEAGGLHSGMLEDGLPSNGVPRSTAPGGIPNPEKKTNCETQCPNPQSLSSGPLTQKQNGLQTTEAKRDAKRMPAKEVTINVTDSIQQMDRSRRITKNCVN

From publication PMC8101327
